Source: article PMC11895293
These are yes or no findings as the source states them, for the method shown. In cells and extracts the contact can be indirect. Some results given as binding are weak or reduced against the parent protein; the word gives no strength. Where a sequence is shown, tags or fusion partners need not be part of it.

Protein sequences, listed by entry. Tags and fused reporters are not part of them. Lines headed by an entry give the natural chain unless they say otherwise; changes in a name come on top. Residues count along the entry.
Flag-USP10 mutant 1 (M1), amino acids 1-100 (Q14694, residues 1-100): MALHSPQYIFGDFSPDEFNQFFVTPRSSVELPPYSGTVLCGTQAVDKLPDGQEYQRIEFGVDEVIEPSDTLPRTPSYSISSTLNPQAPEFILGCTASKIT
Flag-USP10 mutant 2 (M2), amino acids 101-400 (Q14694, residues 101-400): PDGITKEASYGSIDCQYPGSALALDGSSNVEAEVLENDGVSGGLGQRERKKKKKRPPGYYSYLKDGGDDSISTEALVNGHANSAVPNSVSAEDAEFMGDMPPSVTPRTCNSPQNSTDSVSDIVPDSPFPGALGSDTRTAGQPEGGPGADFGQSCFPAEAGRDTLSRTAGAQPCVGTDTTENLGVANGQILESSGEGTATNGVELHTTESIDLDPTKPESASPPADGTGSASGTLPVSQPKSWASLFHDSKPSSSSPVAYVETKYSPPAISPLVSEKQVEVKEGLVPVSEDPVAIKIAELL
Flag-USP10 mutant 3 (M3), amino acids 401-798 (Q14694, residues 401-798): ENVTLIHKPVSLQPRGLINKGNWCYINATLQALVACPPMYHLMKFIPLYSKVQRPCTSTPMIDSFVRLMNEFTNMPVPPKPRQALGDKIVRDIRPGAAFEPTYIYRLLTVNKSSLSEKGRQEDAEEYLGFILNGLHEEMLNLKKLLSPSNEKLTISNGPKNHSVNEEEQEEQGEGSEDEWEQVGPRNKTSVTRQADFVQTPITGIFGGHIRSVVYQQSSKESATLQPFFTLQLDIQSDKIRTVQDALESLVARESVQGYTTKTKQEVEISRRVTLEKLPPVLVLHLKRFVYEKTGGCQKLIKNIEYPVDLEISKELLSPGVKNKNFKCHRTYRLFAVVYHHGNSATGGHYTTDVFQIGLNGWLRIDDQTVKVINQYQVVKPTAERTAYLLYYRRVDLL

What follows are substances tested against T1, Myc-XAB2 (UniProt Q9HCS7) (assay: co-IP; HEK293T cells transfected with Myc-XAB2 and Flag-tagged FL USP10 or its deletion mutants).
T1 sequence: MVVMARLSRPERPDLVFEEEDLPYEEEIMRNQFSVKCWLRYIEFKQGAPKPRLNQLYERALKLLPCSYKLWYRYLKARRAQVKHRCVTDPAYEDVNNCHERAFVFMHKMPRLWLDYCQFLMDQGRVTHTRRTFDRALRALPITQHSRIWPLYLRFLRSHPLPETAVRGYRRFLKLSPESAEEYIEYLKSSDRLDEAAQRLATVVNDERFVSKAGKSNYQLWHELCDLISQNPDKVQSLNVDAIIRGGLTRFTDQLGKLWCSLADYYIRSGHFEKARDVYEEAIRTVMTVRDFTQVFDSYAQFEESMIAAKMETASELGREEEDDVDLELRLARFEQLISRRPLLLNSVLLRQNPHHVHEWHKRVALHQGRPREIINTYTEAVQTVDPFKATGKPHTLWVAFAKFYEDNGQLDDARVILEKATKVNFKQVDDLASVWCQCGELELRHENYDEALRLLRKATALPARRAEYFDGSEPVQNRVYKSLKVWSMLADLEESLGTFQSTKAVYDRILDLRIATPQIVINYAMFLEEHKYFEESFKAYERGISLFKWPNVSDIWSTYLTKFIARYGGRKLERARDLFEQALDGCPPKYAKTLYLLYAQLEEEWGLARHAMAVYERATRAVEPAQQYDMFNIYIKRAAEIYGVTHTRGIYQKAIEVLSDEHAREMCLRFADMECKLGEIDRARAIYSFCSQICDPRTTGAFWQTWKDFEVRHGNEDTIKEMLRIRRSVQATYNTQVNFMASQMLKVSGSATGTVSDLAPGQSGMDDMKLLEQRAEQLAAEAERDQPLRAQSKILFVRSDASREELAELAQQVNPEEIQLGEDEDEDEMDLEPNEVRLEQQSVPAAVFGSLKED

binding | Substance
binds | Flag-USP10 mutant 1 (M1), amino acids 1-100 (from UniProt Q14694 1-100) (domain or fragment)
no binding | Flag-USP10 mutant 2 (M2), amino acids 101-400 (from UniProt Q14694 101-400) (domain or fragment)
no binding | Flag-USP10 mutant 3 (M3), amino acids 401-798 (from UniProt Q14694 401-798) (domain or fragment)
